# Results as given in PubChem BioAssay AID1347076 (National Center for Advancing Translational Sciences (NCATS), 2019).
# Out of some 400,000 compounds screened, about 13,000 (3.2%) were called active. The inconclusive results got no clear call from the source; some entries with a clear call stand among them for comparison. Calls come from the whole dose curve; as a rule, active = well fitted cell-killing curve with a large enough effect; inconclusive = small, poorly fitted or top-dose-only effect, or effect the other way; inactive = flat fitted curve, though single readings scatter. Where the call is inconclusive, the potency comes from a doubtful curve fit.
# Experiment: qHTS assay for MDR1-selective chemotherapeutics: Primary screen using the drug-selected MDR subline cells KB-V1; note: nearly all actives have a fitted effect of over 60% in size
# Conditions: KB-V1 MDR cells viability, CellTiter-Glo, 72 h; activity change, negative = cytotoxicity: at 46.1 µM (top of the series)
# In short: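 Luminescent ATP read-out (CellTiter-Glo, 10 min) measures survival of drug-selected KB-V1 MDR cells after 72 h, 37 degrees C compound exposure. Medium: phenol-red-free DMEM, 10% FBS. Values from fitted concentration-response curves.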
# % is set by controls: 0 for no effect and ±100 for the full control effect; potency is the fitted concentration of half-maximal effect.
Compound,Potency,"activity change, negative = cytotoxicity"
COc1ccc(-c2nc(N)nc(N)n2)c(O)c1,inactive,–
FC(F)(F)c1cccc(Nc2nc(N3CCCC3)nc(N3CCCC3)n2)c1,"inconclusive: 29.1 µM [cytotoxic, single point]",–
Clc1ccc(CN=C2Nc3ccccc3CS2)cc1,"inconclusive: 18.4 µM [cytotoxic, single point]",–
CCc1ccccc1NC(=O)N1CCN(Cc2nc3ccc(C)cc3o2)CC1,inactive,–
CN(C)c1cccc(C(=O)N2CCCC(CCC(=O)N3CCN(c4ccccn4)CC3)C2)c1 (stereo unspecified),"inconclusive: 16.4 µM [cytotoxic, partial curve]",–
CCOC(=O)c1sc2nc(CC(=O)OC)nc(NCc3ccc(Cl)cc3)c2c1C,"inconclusive: 1.16 µM [cytotoxic, full curve]",–
CCCOc1ccc(NC(=O)CC2C(=O)N(CC)C(=S)N2Cc2cccs2)cc1 (stereo unspecified),active: 14.6 µM,–
O=C(O)COc1ccccc1C(Nc1cccnc1)c1cc(Cl)c2cccnc2c1O (stereo unspecified),inactive,–
O=C(Oc1ccc(N(Cc2cccs2)C2=NS(=O)(=O)c3ccccc32)cc1)c1ccccc1,active: 16.4 µM,–
C=CCOC(=O)C1=C(C)NC(SC)=C(C#N)C1c1ccc(OCC)cc1 (stereo unspecified),"inconclusive: 13 µM [cytotoxic, partial curve, poor fit]",–
O=C(Cc1ccc(F)cc1)N1CCN=C1SCc1ccc([N+](=O)[O-])cc1,"inconclusive: 29.1 µM [cytotoxic, single point]",–
COc1ccc(S(=O)(=O)N2CC(C(=O)O)Oc3ccc(Cl)cc32)cc1 (stereo unspecified),"inconclusive: 29.1 µM [rising, single point]",–
O=C(c1cccc(S(=O)(=O)N2CCCC2)c1)c1cccc(S(=O)(=O)N2CCCC2)c1,"inconclusive: 20.6 µM [cytotoxic, single point]",–
CCSc1nnc(COc2ccccc2)n1CC,"inconclusive: 11.6 µM [cytotoxic, partial curve, poor fit]",–
CCOc1ccc2nc(NC(=O)c3cc([N+](=O)[O-])ccc3N3CCOCC3)sc2c1,"inconclusive: 18.4 µM [cytotoxic, partial curve, poor fit]",–
NC(CCc1ccccc1)c1csc(Nc2ccc(C(=O)NCCO)cc2)n1 (stereo unspecified),"inconclusive: 16.4 µM [rising, single point]",–
Cc1ccc(S(=O)(=O)N2CCCCC2CCNC(=O)C(=O)NCC2CCCO2)cc1 (stereo unspecified),active: 5.8 µM,–
O=C(Nc1ccc(O)c2c(=O)cc(-c3cccc(Cl)c3)oc12)c1cccc(Cl)c1,"inconclusive: 29.1 µM [cytotoxic, single point]",–
CCOC(=O)C1(Cc2ccccc2)CCCN(CCCn2cccn2)C1 (stereo unspecified),"inconclusive: 20.6 µM [cytotoxic, partial curve, poor fit]",–
COc1ccc(NC(=O)c2cc(C3CC3)nc3c2c(C)nn3-c2ccccc2)c(OC)c1,inactive,–
CCOC(=O)c1nc(S(C)(=O)=O)ncc1N1CCOCC1,inactive,–
COc1cccc(-c2ccc(CN3C(C(C)C)C(=O)N(Cc4cn(CCC5OCCO5)nn4)CCS3(=O)=O)cc2)c1OC (stereo unspecified),"inconclusive: 14.6 µM [cytotoxic, partial curve]",–
C(=C\c1ccc2ccccc2n1)/c1cccnc1,inactive,–
O=c1cc2c(n[nH]1)CCCC2,inactive,–

# A second format for part of the listing above:
Compound | Potency | activity change, negative = cytotoxicity
O=C(Oc1ccc(N(Cc2cccs2)C2=NS(=O)(=O)c3ccccc32)cc1)c1ccccc1 | active: 16.4 µM | –
NC(CCc1ccccc1)c1csc(Nc2ccc(C(=O)NCCO)cc2)n1 (stereo unspecified) | inconclusive: 16.4 µM [rising, single point] | –
O=C(Nc1ccc(O)c2c(=O)cc(-c3cccc(Cl)c3)oc12)c1cccc(Cl)c1 | inconclusive: 29.1 µM [cytotoxic, single point] | –

# (further entries)

Compound,Potency,"activity change, negative = cytotoxicity"
C[C@@H]1CN([C@@H](C)CO)C(=O)c2cc(Br)cnc2O[C@H]1CN(C)Cc1ccc(-c2ccccc2)cc1,"inconclusive: 0.651 µM [rising, full curve, poor fit]",–
C/C(N)=C(/C#N)C(=O)COC(=O)c1cccc(O)c1,inactive,–
CCN(C(=O)COC(=O)/C(C#N)=C/c1ccc(OC)cc1)C1CCS(=O)(=O)C1 (stereo unspecified),"inconclusive: 18.4 µM [rising, partial curve, poor fit]",–
Cn1nc(C(F)(F)F)cc1C(=O)Nc1ccc(Cl)cc1,inactive,–
COC(=O)c1cccc(NC(=S)N2CCN(c3ccccc3F)CC2)c1,inactive,–
CC(=O)Nc1ccc(C(=O)N/N=C(\C)CC(=O)Nc2ccc(OCc3ccccc3)cc2)cc1,"inconclusive: 23.1 µM [rising, single point]",–
CCCCCCCCCCCCCCCC[n+]1ccc(C)c2ccccc21,active: 13 µM,–
COc1ccc(Cl)cc1NC(=O)COC(=O)C1CCCCC1,"inconclusive: 7.31 µM [rising, partial curve, poor fit]",–
COc1cc2nc(=S)n3[nH]c(COc4ccccc4C)nc3c2cc1OC,active: 0.92 µM,–
Cn1c(SCc2cccc([N+](=O)[O-])c2)nc2c(c1=O)SCC2,active: 4.11 µM,–
Cc1cccc(C)c1NS(=O)(=O)c1cc2c3c(c1)CCN3C(=O)CC2,"inconclusive: 14.6 µM [cytotoxic, single point]",–
CCCNC(=O)c1nnsc1S(=O)(=O)c1ccc(Cl)cc1,active: 23.1 µM,–
COc1ccc(CCNC(=O)COC(=O)CNS(=O)(=O)c2ccc(SC)c([N+](=O)[O-])c2)cc1,"inconclusive: 20.6 µM [rising, partial curve, poor fit]",–
O=c1c2ccc([N+](=O)[O-])cc2ncn1CCOc1ccccc1,"inconclusive: 23.1 µM [cytotoxic, single point]",–
O=C(N/N=C/c1cccc(OC(=O)N2CCOCC2)c1)c1cccs1,"inconclusive: 18.4 µM [cytotoxic, single point]",–
Cc1c(C(=O)O)nn(-c2ccccc2)c(=O)c1C#N,inactive,–
CC(=O)N1N=C(c2ccccc2)CC1c1cn(C)c2ccccc12 (stereo unspecified),active: 23.1 µM,–
Cc1ccc(NC(=S)NNC(=S)Nc2ccc(C)cc2C)cc1,active: 4.61 µM,–
Cc1ccc(NC(=O)CCC(=O)NNC(=O)COc2ccc([N+](=O)[O-])cc2)cc1C,"inconclusive: 14.6 µM [rising, partial curve]",–
Cc1cc(NC(=O)c2cc(-c3ccc(OC(C)C)cc3)nc3ccccc23)no1,"inconclusive: 1.64 µM [cytotoxic, full curve]",–
Cc1ccnn1CC(=O)N/N=C/c1ccc2c(c1)OCO2,–,inconclusive: -46.6%
CC(C)Cn1cnc2c(SCc3ccc(Cl)cc3)nc(N)nc21,"inconclusive: 20.6 µM [cytotoxic, single point]",–
CCc1nn(C(C)C(=O)N2CCN(c3ccc(OC)cc3)CC2)c(=O)c2cc3occc3n12 (stereo unspecified),inactive,–
O=c1cc(N2CCCCC2)c(-c2ccccc2)nn1Cc1ccc(Cl)cc1,"inconclusive: 14.6 µM [cytotoxic, partial curve]",–

Compound,Potency,"activity change, negative = cytotoxicity"
COc1ccc(NC(=S)N2CCC(c3ccc(C)cc3)C2)cc1 (stereo unspecified),inactive,–
COc1ccc(S(=O)(=O)N2CC=C(c3ccccc3)CC2)cc1OC,"inconclusive: 14.6 µM [cytotoxic, single point]",–
COc1ccccc1OCC(=O)Nc1ccccc1C(=O)Nc1cccc(C(=O)O)c1,"inconclusive: 5.17 µM [rising, full curve]",–
O=C(Cn1cc(/C=C\[N+](=O)[O-])c2ccccc21)Nc1ccccc1,"inconclusive: 13 µM [cytotoxic, partial curve, poor fit]",–
CNC(=S)N1N=C(c2ccc(C)cc2)CC1c1ccc(OC)cc1 (stereo unspecified),"inconclusive: 23.1 µM [cytotoxic, partial curve, poor fit]",–
Cc1[nH]nc2nc(SCC(=O)NCCC3=CCCCC3)n(-c3ccc(Br)cc3)c(=N)c12,inactive,–
Cc1nc(SCc2ccccc2)c2ccsc2n1,"inconclusive: 14.6 µM [cytotoxic, partial curve]",–
Cc1c(C(=O)NCc2ccccc2C(F)(F)F)sc(=O)n1Cc1ccc2c(c1)OCO2,"inconclusive: 20.6 µM [cytotoxic, partial curve]",–
COCCN(Cc1ccc(C)c(Br)c1)S(=O)(=O)c1ccc2[nH]c(=O)ccc2c1,"inconclusive: 29.1 µM [cytotoxic, single point]",–
COc1ccc(NC(=O)CN(c2ccc(C)cc2)S(=O)(=O)c2c(C)nn(C)c2C)cc1OC,active: 13 µM,–
Cc1ccc(C)c(N2CCN(C3(c4ccccc4)C(=O)c4ccccc4C3=O)CC2)c1,"inconclusive: 29.1 µM [cytotoxic, single point]",–
S=c1[nH]nc(-c2ccc3ccccc3n2)n1-c1cc(Cl)cc(Cl)c1,active: 16.4 µM,–
O=C1/C(=C\c2cccnc2)Sc2ccccc21,inactive,–
COc1ccc(C(C)C)cc1S(=O)(=O)NCCCn1ccnc1,"inconclusive: 29.1 µM [cytotoxic, single point]",–
O=C(COc1ccc(Br)cc1CO)Nc1ccccc1F,"inconclusive: 29.1 µM [cytotoxic, single point]",–
Cc1nn(-c2ccccc2)c(C)c1/C=N/NC(=O)c1ccc(F)cc1,inactive,–
Cc1cc(C(C)(C)C)oc1C(=O)N(CC(=O)NC1CCCC1)Cc1ccccc1Cl,"inconclusive: 29.1 µM [cytotoxic, single point]",–
CCc1nc2ccc(C(=O)N3CCN(c4ccccc4)CC3)cn2c1N(C)CCC(C)C,active: 23.1 µM,–
C[C@@H]1CN([C@@H](C)CO)C(=O)CCCn2nncc2CO[C@H]1CN(C)S(=O)(=O)c1ccccc1F,inactive,–
c1ccc2c(c1)OCC(CNc1ncnc3sccc13)O2 (stereo unspecified),"inconclusive: 6.51 µM [cytotoxic, full curve, poor fit]",–
COc1ccc(-c2cc(C(F)(F)F)nc(S(=O)(=O)CCCC(=O)Nc3cc(C)on3)n2)cc1OC,inactive,–
C=CCn1cnc2c(c1=O)c1nc3ccccc3nc1n2/N=C/c1cc(OC)c(OC)c(OC)c1,"inconclusive: 9.2 µM [cytotoxic, partial curve]",–
COc1ccc(N2C(=O)CSC2c2ccc3c(c2)OCO3)c(OC)c1 (stereo unspecified),"inconclusive: 20.6 µM [cytotoxic, single point]",–
